Data reported in patent US8580798B2, “Substituted pyrimidine derivatives useful in the treatment of cancer and other disorders” (Bayer Intellectual Property GmbH, priority 2005, dated 2013).
Some entries share one result that the patent states for a list of compounds.

By UniProt entry, the sequences of proteins in these tests, tags left out. Residues count along the entry.
UniProt P35918, 832-1160 limits assumed: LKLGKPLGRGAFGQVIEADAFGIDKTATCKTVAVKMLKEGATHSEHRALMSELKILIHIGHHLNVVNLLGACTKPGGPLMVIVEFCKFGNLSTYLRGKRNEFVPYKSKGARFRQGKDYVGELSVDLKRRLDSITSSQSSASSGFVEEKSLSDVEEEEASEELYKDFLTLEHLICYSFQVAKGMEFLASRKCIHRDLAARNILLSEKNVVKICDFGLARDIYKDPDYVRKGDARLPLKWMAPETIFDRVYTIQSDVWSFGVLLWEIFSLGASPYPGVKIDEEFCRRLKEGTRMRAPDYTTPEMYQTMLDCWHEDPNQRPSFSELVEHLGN
UniProt P04049, 302-648, species assumed: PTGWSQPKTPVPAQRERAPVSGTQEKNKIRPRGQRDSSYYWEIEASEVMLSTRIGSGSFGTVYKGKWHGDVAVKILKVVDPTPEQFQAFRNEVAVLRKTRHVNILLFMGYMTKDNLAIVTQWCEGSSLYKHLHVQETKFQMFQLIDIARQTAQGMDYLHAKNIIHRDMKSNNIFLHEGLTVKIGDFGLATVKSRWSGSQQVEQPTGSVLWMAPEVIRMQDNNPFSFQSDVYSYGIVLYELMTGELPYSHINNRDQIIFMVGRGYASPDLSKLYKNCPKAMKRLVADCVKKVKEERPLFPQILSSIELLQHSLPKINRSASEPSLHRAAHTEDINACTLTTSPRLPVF

What was measured:
flk-1 (Murine VEGFR-2) = target: T1, flk-1 (Murine VEGFR-2) (Mus musculus, UniProt P35918); experiment: flk-1 (murine VEGFR-2) biochemical assay, TR-FRET; details: stated for 'either or both the c-raf and flk-1 biochemical assays'; read-out: IC50, significant inhibition in flk-1 biochemical assay
T1 construct: 7 nM flk-1 (kinase domain)

c-raf (raf-1) = target: T2, c-raf (raf-1) (Homo sapiens, UniProt P04049); experiment: c-raf (raf-1) biochemical assay; details: stated for 'either or both the c-raf and flk-1 biochemical assays'; read-out: IC50, significant inhibition in c-raf biochemical assay
T2 construct: GST-c-raf (from amino acid 302 to amino acid 648); made in house; host or cells: Sf9 insect cells (baculovirus, co-infected with full-length Lck)

`CNC(=O)c1cc(Oc2ccc(NC(=O)Nc3cc(C(F)(F)F)ncn3)cc2)ccn1` [Example 2, 4-{4-[3-(6-trifluoromethyl-pyrimidin-4-yl)-ureido]-phenoxy}-pyridine-2-carboxylic acid methylamide] was tested, and the IC50 (flk-1 (Murine VEGFR-2)) was under 10 µM and the IC50 (c-raf (raf-1)) was under 10 µM.
`CC(C)(C)c1cc(NC(=O)Nc2ccc(Oc3ccnc(C(N)=S)c3)cc2)ncn1` [Example 10, 4-{4-[3-(6-tert-Butylpyrimidin-4-yl)ureido]phenoxy}pyridine-2-carbothioic acid amide] showed an IC50 (flk-1 (Murine VEGFR-2)) of under 10 µM and an IC50 (c-raf (raf-1)) of under 10 µM.
With `Cc1cc(Oc2ccc(NC(=O)Nc3cc(C(F)(F)F)ncn3)cc2)ccn1` [Example 3, 4-{4-[3-(6-trifluoromethylpyrimidin-4-yl)ureido]phenoxy}-2-methylpyridine] the IC50 (flk-1 (Murine VEGFR-2)) was under 10 µM and the IC50 (c-raf (raf-1)) was under 10 µM.
With `CNC(=O)c1cc(Oc2ccc(NC(=O)Nc3cc(OC)ncn3)c(F)c2)ccn1` [Example 12, 4-{3-fluoro-4-[3-(6-methoxypyrimidin-4-yl)ureido]phenoxy}pyridine-2-carboxylic acid methylamide] the IC50 (flk-1 (Murine VEGFR-2)) was under 10 µM and the IC50 (c-raf (raf-1)) was under 10 µM.
With `NC(=S)c1cc(Oc2ccc(NC(=O)Nc3cc(-c4ccccc4)ncn3)cc2)ccn1` [Example 13, 4-{4-[3-(6-Phenylpyrimidin-4-yl)ureido]phenoxy}pyridine-2-carbothioic acid amide] the IC50 (flk-1 (Murine VEGFR-2)) was under 10 µM and the IC50 (c-raf (raf-1)) was under 10 µM.
In the case of `CC(C)(C)c1cc(NC(=O)Nc2ccc(Oc3ccnc(C(N)=O)c3)cc2F)ncn1` [Example 9, 4-{4-[3-(6-tert-Butylpyrimidin-4-yl)ureido]-3-fluorophenoxy}pyridine-2-carboxylic acid amide], the IC50 (flk-1 (Murine VEGFR-2)) is reported as under 10 µM and the IC50 (c-raf (raf-1)) is reported as under 10 µM.
Work on `CC(C)(C)c1cc(NC(=O)Nc2ccc(Oc3ccnc(C#N)c3)cc2F)ncn1` [Example 8, 1-(6-tert-Butylpyrimidin-4-yl)-3-[4-(2-cyanopyridin-4-yloxy)-2-fluorophenyl]urea] yielded an IC50 (flk-1 (Murine VEGFR-2)) of under 10 µM and an IC50 (c-raf (raf-1)) of under 10 µM.
`CNC(=O)c1cc(Oc2ccc(NC(=O)Nc3cc(C(C)(C)C)ncn3)c(F)c2)ccn1` [Example 7, 4-{3-fluoro-4-[3-(6-tert-butylpyrimidin-4-yl)ureido]phenoxy}pyridine-2-carboxylic acid methylamide] was tested, and the IC50 (flk-1 (Murine VEGFR-2)) was under 10 µM and the IC50 (c-raf (raf-1)) was under 10 µM.
`Cc1cc(Oc2ccc(NC(=O)Nc3cc(C(F)(F)F)ncn3)c(F)c2)ccn1` [Example 4, 1-[2-Fluoro-4-(2-methylpyridin-4-yloxy)phenyl]-3-(6-trifluoromethylpyrimidin-4-yl)urea] was tested, and the IC50 (flk-1 (Murine VEGFR-2)) was under 10 µM and the IC50 (c-raf (raf-1)) was under 10 µM.
`CNC(=O)c1cc(Oc2ccc(NC(=O)Nc3cc(C(F)(F)F)ncn3)c(F)c2)ccn1` [Example 1, 4-{3-fluoro-4-[3-(6-trifluoromethylpyrimidin-4-yl)ureido]phenoxy}pyridine-2-carboxylic acid methylamide] gave an IC50 (flk-1 (Murine VEGFR-2)) of under 10 µM and an IC50 (c-raf (raf-1)) of under 10 µM.
